Source: doi:10.1101/705459 (bioRxiv, 2019)
Where two headings read alike, the source gives them in different places. These are yes or no findings as the source states them, for the method shown. Some binding calls cover weakened binding; strength is not graded here.

Amino acid sequences for entries named in this document (tags omitted). A change or cut given only in a name is not applied to a line headed by its entry. Residues count along the entry.
CMG2 on EA.hy926 endothelial cells (human (endogenous in EA.hy926)) (P58335, residues 34-489): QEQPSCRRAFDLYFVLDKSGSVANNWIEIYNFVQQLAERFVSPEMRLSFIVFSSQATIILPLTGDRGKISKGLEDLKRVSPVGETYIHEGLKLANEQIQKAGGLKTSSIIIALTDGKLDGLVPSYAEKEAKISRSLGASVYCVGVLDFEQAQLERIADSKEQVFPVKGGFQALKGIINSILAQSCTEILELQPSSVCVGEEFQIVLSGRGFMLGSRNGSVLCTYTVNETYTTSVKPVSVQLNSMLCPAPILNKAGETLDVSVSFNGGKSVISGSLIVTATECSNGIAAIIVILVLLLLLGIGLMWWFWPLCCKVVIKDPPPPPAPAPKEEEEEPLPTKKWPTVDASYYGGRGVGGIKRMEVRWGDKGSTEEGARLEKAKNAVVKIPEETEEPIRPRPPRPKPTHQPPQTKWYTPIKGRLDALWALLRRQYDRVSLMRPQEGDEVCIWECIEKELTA

Key:
[1] = target: CMG2 on EA.hy926 endothelial cells (human (endogenous in EA.hy926)) (UniProt P58335); experiment: flow cytometry on cells
[2] = target: CMG2 on EA.hy926 endothelial cells (human (endogenous in EA.hy926)) (UniProt P58335); experiment: flow cytometry on cells; remark: listed apart in the source
[3] = target: CMG2-GST-biotin (human CMG2 vWA domain 40-217, [change], [change], GST fusion, biotin-labelled) (human) (UniProt P58335); experiment: BLI

Row | Binder | binding [1] | binding [2] | binding [3]
1 | PAIAIAVHSQDVSIP (HiLite-488 on the N-terminus) [S16-488 (S16 conjugated at the N-terminus to HiLite-488)] | binds | binds | 
2 | PAIAIAVHSQDVSIP [Peptide S16 (canstatin-derived 15-mer)] |  |  | no binding (condition: with 10 mM EDTA)
